This is a selection; strong and weak results do not stand in their true shares. For some of these results: At the low end of the ranking the order means little. The list shows a part of the results. For some of these results: The source does not settle which construct or isoform was used.
Columns and labels:
HSF1 = HSF1 (UniProt Q00613); assay: DAPPL (digital affinity profiling via proximity ligation, sequencing); details: 10 mM Tris-HCl pH 7.5, 50 mM NaCl, 1 mM DTT, 4% glycerol, room temperature, 30 min; GST-TFs on glutathione beads, 16-mer random dsDNA library, 0.1% …; high values mean tight binding; double strand, one strand shown; scale: fold enrichment (6-mer frequency, TF over GST control)
ELF2 = molecular target: T1, ELF2 (UniProt Q15723); assay: as above; details: 10 mM Tris-HCl pH 7.5, 50 mM NaCl, 1 mM DTT, 4% glycerol, room temperature, 30 min; GST-TFs on glutathione beads, 16-mer random dsDNA library, 0.1% …; high values mean tight binding; double strand, one strand shown; scale: fold enrichment (6-mer frequency, TF over GST control)
T1 sequence: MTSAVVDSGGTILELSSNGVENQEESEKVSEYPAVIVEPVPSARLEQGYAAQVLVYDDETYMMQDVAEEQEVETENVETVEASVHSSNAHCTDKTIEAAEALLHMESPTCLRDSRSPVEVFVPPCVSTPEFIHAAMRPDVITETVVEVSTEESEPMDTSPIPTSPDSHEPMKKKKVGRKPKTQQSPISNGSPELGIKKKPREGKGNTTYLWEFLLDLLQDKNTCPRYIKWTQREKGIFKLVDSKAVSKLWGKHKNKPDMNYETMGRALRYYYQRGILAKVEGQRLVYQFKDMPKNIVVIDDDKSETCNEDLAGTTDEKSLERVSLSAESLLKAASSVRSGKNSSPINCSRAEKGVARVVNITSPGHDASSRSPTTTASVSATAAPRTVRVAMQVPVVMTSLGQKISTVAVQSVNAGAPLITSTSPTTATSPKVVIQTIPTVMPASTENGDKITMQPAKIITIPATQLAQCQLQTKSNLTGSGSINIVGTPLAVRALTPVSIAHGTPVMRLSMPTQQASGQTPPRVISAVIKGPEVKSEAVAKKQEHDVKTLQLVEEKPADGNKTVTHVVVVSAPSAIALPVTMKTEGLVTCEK

Protein sequences, listed by entry. Tags and fused reporters are not part of them. Lines headed by an entry give the natural chain unless they say otherwise; changes in a name come on top.
UniProt Q00613: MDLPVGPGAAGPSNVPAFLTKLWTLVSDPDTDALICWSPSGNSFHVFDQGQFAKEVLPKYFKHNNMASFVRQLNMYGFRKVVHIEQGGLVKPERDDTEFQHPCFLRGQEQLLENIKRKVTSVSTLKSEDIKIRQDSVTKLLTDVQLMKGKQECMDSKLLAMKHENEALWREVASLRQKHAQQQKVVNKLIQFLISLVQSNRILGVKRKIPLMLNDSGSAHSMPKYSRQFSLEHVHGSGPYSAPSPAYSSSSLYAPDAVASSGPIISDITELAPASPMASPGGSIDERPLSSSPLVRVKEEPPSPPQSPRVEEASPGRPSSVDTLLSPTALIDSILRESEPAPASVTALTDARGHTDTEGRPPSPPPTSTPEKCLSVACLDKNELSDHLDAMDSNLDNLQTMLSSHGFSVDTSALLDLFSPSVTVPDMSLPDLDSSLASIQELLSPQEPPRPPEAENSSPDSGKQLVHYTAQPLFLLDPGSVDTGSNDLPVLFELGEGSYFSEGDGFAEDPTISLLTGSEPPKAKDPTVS

| Sequence | binding signal (HSF1) | binding signal (ELF2) |
| --- | --- | --- |
| CAATCG | 0.966 | 0.835 |
| ACGTCG | 0.551 | 0.601 |
| GAGCTG | 0.696 | 0.722 |
| TTGGAC | 0.808 | 0.932 |
| CGTGTA | 0.631 | 0.642 |
| GTCGAA | 0.799 | 0.577 |
| AGCGCG | 0.747 | 0.799 |
| GCGAGA | 0.731 | 0.47 |
| GGCCAC | 0.702 | 0.922 |
| GGAGGT | 0.292 | 0.346 |
| CGGTAA | 0.873 | 0.986 |
| AGGACT | 0.863 | 0.925 |
| GATCGG | 0.451 | 0.483 |
| AGGGGG | 0.543 | 0.559 |
| GCGAGG | 0.577 | 0.584 |
| AAGACC | 0.863 | 0.858 |
| CGCTGA | 0.708 | 0.849 |
| GAACGA | 0.953 | 0.727 |
| GGCCGC | 0.639 | 0.756 |
| GCGGTT | 0.669 | 0.8 |
| CCTGAG | 0.743 | 0.809 |

Taken from above.
For binding signal (HSF1), GGAGGT has the entry 0.292
For binding signal (HSF1), AGGGGG has the entry 0.543
For binding signal (HSF1), CAATCG has the entry 0.966

Continuation:

| Sequence | binding signal (HSF1) | binding signal (ELF2) |
| --- | --- | --- |
| GTTAGG | 0.696 | 0.77 |
| CAGGGG | 0.505 | 0.551 |
| GTCGCT | 0.602 | 0.759 |
| GGAGCA | 0.414 | 0.443 |
| GGCCCG | 0.603 | 0.752 |
| GCAAGT | 0.703 | 0.78 |
| GGTGCG | 0.483 | 0.578 |
| AGAAAG | 1.87 | 0.806 |
| ACGGCG | 0.619 | 0.782 |
| GCAGCG | 0.651 | 0.777 |
| GAAGGA | 0.734 | 0.821 |
| AGGCGA | 0.515 | 0.498 |
| GGCGTG | 0.282 | 0.314 |
| GTCGGG | 0.19 | 0.225 |
| CGTAGG | 0.591 | 0.659 |
| TGTGAG | 0.308 | 0.312 |
| GAGGCC | 0.368 | 0.391 |
| TGCAGG | 0.798 | 1.03 |
| AGACCA | 0.611 | 0.608 |
| GGTCAA | 0.709 | 0.839 |
